Source: article PMC10878155

Sequences of proteins named here, by UniProt entry; tags and fusion partners are left off.
UniProt P17096: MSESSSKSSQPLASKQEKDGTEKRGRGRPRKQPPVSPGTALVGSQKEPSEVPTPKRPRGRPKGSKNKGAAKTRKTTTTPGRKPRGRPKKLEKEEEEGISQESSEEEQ

Assays:
STMN1 = STMN1 (UniProt P16949); experiment: affinity purification with mass spectrometry; STMN1 precipitated with primary antibody on magnetic beads from IP lysis buffer lysate of STMN1-overexpressing NCI-H1299 cells, overnight at 4 °C; SDS-PAGE, LC-MS/MS identification
STMN1, P16949 = biological target: T1, STMN1, P16949; experiment: as above; settings: remark: other sources report otherwise
T1 chain: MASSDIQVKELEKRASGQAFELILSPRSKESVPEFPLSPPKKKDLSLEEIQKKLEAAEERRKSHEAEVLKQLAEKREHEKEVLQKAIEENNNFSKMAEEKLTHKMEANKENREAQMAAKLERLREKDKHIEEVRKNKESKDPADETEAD

binding (STMN1): binds
Molecule: high mobility group AT-hook 1 (from UniProt P17096 1-107)

binding (STMN1, P16949): no binding
B1: signal transducer and activator of transcription 1, P42224 1-750 (protein)
chain: MSQWYELQQLDSKFLEQVHQLYDDSFPMEIRQYLAQWLEKQDWEHAANDVSFATIRFHDLLSQLDDQYSRFSLENNFLLQHNIRKSKRNLQDNFQEDPIQMSMIIYSCLKEERKILENAQRFNQAQSGNIQSTVMLDKQKELDSKVRNVKDKVMCIEHEIKSLEDLQDEYDFKCKTLQNREHETNGVAKSDQKQEQLLLKKMYLMLDNKRKEVVHKIIELLNVTELTQNALINDELVEWKRRQQSACIGGPPNACLDQLQNWFTIVAESLQQVRQQLKKLEELEQKYTYEHDPITKNKQVLWDRTFSLFQQLIQSSFVVERQPCMPTHPQRPLVLKTGVQFTVKLRLLVKLQELNYNLKVKVLFDKDVNERNTVKGFRKFNILGTHTKVMNMEESTNGSLAAEFRHLQLKEQKNAGTRTNEGPLIVTEELHSLSFETQLCQPGLVIDLETTSLPVVVISNVSQLPSGWASILWYNMLVAEPRNLSFFLTPPCARWAQLSEVLSWQFSSVTKRGLNVDQLNMLGEKLLGPNASPDGLIPWTRFCKENINDKNFPFWLWIESILELIKKHLLPLWNDGCIMGFISKERERALLKDQQPGTFLLRFSESSREGAITFTWVERSQNGGEPDFHAVEPYTKKELSAVTFPDIIRNYKVMAAENIPENPLKYLYPNIDKDHAFGKYYSRPKEAPEPMELDGPKGTGYIKTELISVSEVHPSRLQTTDNLLPMSPEEFDEVSRIVGSVEFDSMMNTV

These are yes or no findings as the source states them, for the method shown. Binding seen in cells or lysates may run through a third protein. A yes stands for co-enrichment or nearness to the bait. Other partners may have been found. For some assays here: A no says only that the protein was not detected with the bait. Each block holds one molecule with its values, some of them ahead of it.
